PubChem BioAssay AID686937 – Drosophila RNAi Screening Center – 2013
The deposit covers about 23,000 reagents; shown is a random part of those with a known target gene and a result. 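Reduced-secretion tags in replicate 1 do not always agree with the z-scores; no criterion for assigning the tags was given.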 Reagents against one gene are numbered here. A plus sign joins genes that one reagent is predicted to hit. Further read-outs or replicates are left out here. The record does not give: the amount of reagent.

Purpose: 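Knock-downs that reduce output of a secreted reporter enzyme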 (primary screen)
Cells: Drosophila S2 cells expressing secreted horseradish peroxidase
Reagent: long dsRNA against Drosophila genes
Time to read-out: about 5.5 days (5 days dsRNA, then 12 h reporter induction)
Treatment: reporter expression induced after 5 days of dsRNA, read 12 h later; inducer not stated
Measurement: 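Chemiluminescent measurement of peroxidase in the medium 12 h after reporter induction, following 5 days of dsRNA, given as a z-score per plate; higher means more secretion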
Direction: z-score: higher = more reporter secreted into medium

The first 7 records, to show the layout:
Target gene | reagent | z-score, replicate 1
ana3 | 1 | 0.33
CG7806 | 1 | -0.06
Muc11A | 1 | 0.21
Ir67a | 1 | 0.24
Sulf1 | 1 | 0.27
Sulf1 | 2 | 0.61
CG12531 | 1 | 0.4

The listing, repeating the preview:
Target gene | reagent | z-score, replicate 1
ana3 | 1 | 0.33
CG7806 | 1 | -0.06
Muc11A | 1 | 0.21
Ir67a | 1 | 0.24
Sulf1 | 1 | 0.27
Sulf1 | 2 | 0.61
CG12531 | 1 | 0.4
CG13983 | 1 | 0.4
CG34236 | 1 | -0.06
CG15571 | 1 | 0.45
CG8777 | 1 | 0.28
Bdp1 | 1 | 0.15
CG12640 | 1 | 0.46
Tsp42Eb + CG30160 | 1 | 0.17
Tsp42Eb + CG30160 | 2 | 0.2
CG8100 | 1 | 0.44
Det | 1 | -0.51
PAPLA1 | 1 | 0.25
PAPLA1 | 2 | 0.39
CG14543 | 1 | -0.13
ND-B14 | 1 | -0.31
CG31949 | 1 | 0.07
Elovl7 | 1 | 0.37
Elovl7 | 2 | -0.53
Ssl | 1 | -0.08
Tsp42En | 1 | 0.17
Gyc32E | 1 | 0.55
scrib | 1 | 0.24
scrib | 2 | -0.16
scrib | 3 | 0.34
scrib | 4 | 0.27
CG15649 | 1 | 0.09
CG43867 | 1 | -0.28
CG43867 | 2 | 0.3
CG43867 | 3 | 0.42
CG43867 | 4 | 0.26
CG43867 | 5 | 0.16
Larp4B | 1 | 0.27
CG11585 | 1 | 0.28
zfh1 | 1 | -0.32
zfh1 | 2 | -0.76
Thor | 1 | 0.24
rib | 1 | 0.58
Ttd14 | 1 | 0.3
Ttd14 | 2 | -0.92
CG6843 | 1 | 0.49
sktl | 1 | 0.32
Dic4 | 1 | 0.37
CG17321 | 1 | 0.44
Obp83b | 1 | 0.39
SmydA-9 | 1 | 0.18
CG15059 | 1 | 0.43
CG17122 | 1 | 0.46
CG14265 | 1 | 0.21
Drip | 1 | 0.47
CG3527 | 1 | 0.34
